Data taken from patent US20050229260A1, “Compound screens relating to insulin deficiency or insulin resistance” (DevGen NV, priority 2000, published 2005).
Like-named read-outs stand apart in the source and are kept apart here. For at least one compound, name, drawing or mass did not settle the structure.

Key:
[1] = system: C. elegans strain DR1564: daf-2(m41); format: in vivo; conditions: FIG. 3 / FIG. 4, daf-2 mutant C. elegans
C. elegans = conditions: Barbar et al. 1999, Neurobiol Aging 20:513-519; cited from earlier work
protein kinase C = protein kinase C inhibitor (potent, selective); cited from earlier work

With `COC[C@H]1OC(=O)c2coc3c2[C@@]1(C)C1=C(C3=O)[C@@H]2CCC(=O)[C@@]2(C)C[C@H]1OC(C)=O` [Wortmannin] the “effect on genetic insulin resistance caused by daf-2 mutations (bypass of/rescue from dauer larval state)” value [1] was “further increases insulin resistance” and the “effect on genetic insulin resistance caused by daf-2 mutations (bypass of/rescue from dauer larval state)” value ([1]; listed as wortmannin) was “further enhances insulin resistance caused by daf-2 mutations”.

In the case of `O=c1cc(N2CCOCC2)oc2c(-c3ccccc3)cccc12` [LY294002], the inducing dauer formation (C. elegans) is given as “activity of LY294002 in inducing dauer formation”.

In the case of `COc1ccc2c(c[n+](C)c3c4cc5c(cc4ccc23)OCO5)c1OC` [Chelerythrine chloride], the IC50 (protein kinase C) is listed as 700 nM.
